{"source": "PubChem BioAssay AID504467", "about": "(National Center for Advancing Translational Sciences (NCATS), 2011)", "note": "Hit rate of the full screen: of about 330,000 compounds, about 7,700 (2.3%) were called active. Inconclusive results, whose numbers are uncertain, are shown with a selection of clear calls. Calls follow the shape of the dose curve; as a rule, active = well fitted inhibition curve with a large enough effect; inconclusive = small, poorly fitted or top-dose-only effect, or effect the other way; inactive = flat fitted curve, though single readings scatter. A potency beside an inconclusive call is a rough fit, not a confirmed value. Potency is read from the fitted curve at half-maximal effect."}
{"assay": "qHTS screen for small molecules that inhibit ELG1-dependent DNA repair in human embryonic kidney (HEK293T) cells expressing luciferase-tagged ELG1; also: nearly all actives have a fitted effect of over 55% in size", "conditions": "HEK293T ELG1-luciferase reporter, luminescence, 16 h, DNA damage induced by 5-fluorouridine; series mostly up to 46.1 µM", "how_it_was_run": "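5-Fluorouridine DNA damage + compound/DMSO, 2,000 cells/well, 16 h, 37 °C/5% CO2. ONE-Glo, 30 min RT, luminescence. Readout = decrease in reporter signal.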"}
{"molecule": "O=C(Nc1cc(-c2ccccc2)cs1)c1ccco1", "Potency": "inconclusive: 4.11 µM [activator, partial curve]"}
{"molecule": "CCOC(=O)N1CCN(C(=O)Nc2ccc3nc(C)c(C)nc3c2)CC1", "Potency": "inconclusive: 29.1 µM [inhibitor, single point]"}
{"molecule": "COc1ccccc1NC(=O)N1CCCC1C(=O)NCCc1ccccc1", "note": "(stereo not given)", "Potency": "inactive"}
{"molecule": "Cc1cc(N2CCN(C)CC2)nc2ccc(NC(=O)CCC(=O)NCCCOC(C)C)cc12", "Potency": "inactive"}
{"molecule": "Cc1ccc(COc2ccc(/C=N/NC(=O)c3ccc(CN4CCOCC4)cc3)cc2)cc1", "Potency": "inconclusive: 16.4 µM [activator, single point]"}
{"molecule": "O=C(/C=C/c1ccc2c(c1)OCO2)Nc1nc2ccccc2s1", "Potency": "inconclusive: 6.51 µM [activator, partial curve]"}
{"molecule": "CCOc1cc(N2CCOCC2)c(OCC)cc1NCC(=O)N1CCN(Cc2ccccc2)CC1", "Potency": "active: 8.2 µM"}
{"molecule": "O=C1CC(/C=C/c2ccc(Cl)cc2)=Nc2ccccc2N1", "Potency": "inconclusive: 3.26 µM [activator, full curve]"}
{"molecule": "Cc1ccc(CSCC(=O)N2CCN(Cc3ccc4c(c3)OCO4)CC2)cc1", "Potency": "inconclusive: 18.4 µM [inhibitor, partial curve]"}
{"molecule": "COc1ccc(C(=O)n2cc(C(=O)c3cc(C)ccc3O)cn2)cc1OC", "Potency": "active: 23.1 µM"}
{"molecule": "CCOc1cc(-c2ccccc2)nc(N)n1", "Potency": "inconclusive: 20.6 µM [activator, partial curve]"}
{"molecule": "O=C(Nc1cccc2ccccc12)N1CCc2ccccc2C1", "Potency": "inconclusive: 29.1 µM [activator, single point]"}
{"molecule": "Cn1c(Nc2cccc(Cl)c2)nc2ccccc21", "Potency": "inconclusive: 16.4 µM [activator, partial curve, poor fit]"}
{"molecule": "Cc1ccc(NS(=O)(=O)c2ccc(OCC(=O)Nc3cccc([N+](=O)[O-])c3)c(C)c2)cc1", "Potency": "inconclusive: 29.1 µM [inhibitor, single point]"}
{"molecule": "CC(C)Oc1ccc(C(=O)/C(=C\\c2cccs2)c2nc3ccccc3o2)cc1", "Potency": "inconclusive: 18.4 µM [activator, single point]"}
{"molecule": "CC(C)CC(c1nnnn1Cc1ccco1)N1CCN(c2cccc(Cl)c2)CC1", "note": "(stereo not given)", "Potency": "inconclusive: 16.4 µM [inhibitor, single point]"}
{"molecule": "O=C1NC2(CCCCC2)C(=O)N1Cc1cccc(C(F)(F)F)c1", "Potency": "active: 9.2 µM"}
{"molecule": "COc1ccc(CC(=O)N(CCC2=CCCCC2)c2c(N)n(Cc3ccccc3)c(=O)[nH]c2=O)cc1OC", "Potency": "inactive"}
{"molecule": "Cc1ccoc1C(=O)N1CCN(C(=O)c2occc2C)CC1", "Potency": "inactive"}
{"molecule": "CCCOC(=O)CC1C(=O)NCCN1C(=O)OC(C)(C)C", "note": "(stereo not given)", "Potency": "inactive"}
{"molecule": "CCc1nc(SCC(=O)N2c3ccccc3CC2C)c2c(C)c(C)sc2n1", "note": "(stereo not given)", "Potency": "inconclusive: 29.1 µM [inhibitor, single point]"}
{"molecule": "O=Cc1cccn1-c1cccnc1", "Potency": "inconclusive: 0.651 µM [activator, full curve, poor fit]"}
{"molecule": "CCOc1ccccc1NC(=O)c1cccc2c1C(=O)N(C1CCCCC1)C2", "Potency": "inconclusive: 23.1 µM [inhibitor, single point]"}
{"molecule": "Cc1ccc(CNC(=O)CCSCc2cccc(F)c2)cc1", "Potency": "inactive"}
{"molecule": "CC(Sc1nnc(-c2ccncc2)n1C)C(=O)Nc1ccc(N2CCOCC2)cc1", "note": "(stereo not given)", "Potency": "inactive"}
{"molecule": "Cc1ccc2cc3cc(C(=O)N4CCN(C(=O)c5ccco5)CC4)sc3nc2c1", "Potency": "inconclusive: 20.6 µM [inhibitor, single point]"}
{"molecule": "O=C1CCCC(O)=C1N=Nc1ccc2c(c1)OCO2", "Potency": "inconclusive: 16.4 µM [activator, partial curve]"}
{"molecule": "Cc1ccc(NS(=O)(=O)c2cccc(C(=O)Nc3cc(C)on3)c2)cc1", "Potency": "active: 20.6 µM"}
{"molecule": "CCn1ccc(C(=O)Nc2ccc(N(C)C(C)=O)cc2)n1", "Potency": "inconclusive: 18.4 µM [activator, partial curve]"}
{"molecule": "COc1cc(Cn2c(-c3ccc(O)c(OC)c3)nc3ccccc32)ccc1O", "Potency": "inconclusive: 18.3 µM [activator, single point]"}
{"molecule": "Cc1ccc(S(=O)(=O)N(CCCO)CC(O)CON=C2c3ccccc3-c3ccccc32)cc1", "note": "(stereo not given)", "Potency": "inconclusive: 29.1 µM [inhibitor, single point]"}
{"molecule": "CSc1nc(C)c(C(=O)Nc2ccccc2)c(C)c1C#N", "Potency": "inconclusive: 5.17 µM [inhibitor, single point]"}
{"molecule": "COc1cccc(N(C(=O)c2csnn2)C(C(=O)NC2CCCC2)c2ccccc2)c1", "note": "(stereo not given)", "Potency": "inconclusive: 20.6 µM [inhibitor, single point]"}
{"molecule": "O=C(Nc1ccc(F)c(F)c1)C1CCN(S(=O)(=O)c2cccs2)CC1", "Potency": "inconclusive: 16.4 µM [inhibitor, partial curve]"}
{"molecule": "COCCn1c(=N)c(S(=O)(=O)c2ccc(Br)cc2)cc2c(=O)n3ccccc3nc21", "Potency": "inconclusive: 29.1 µM [inhibitor, single point]"}
{"molecule": "COc1cc(NC(=O)CSCc2cnn(-c3ccccc3)c2-n2cccc2)cc(OC)c1", "Potency": "inconclusive: 23.1 µM [inhibitor, partial curve]"}
{"molecule": "CN(C)CC(O)COC(c1ccccc1)c1ccccc1", "note": "(stereo not given)", "Potency": "inactive"}
{"molecule": "O=C(Cc1cccs1)NCc1ccccc1", "Potency": "inconclusive: 14.6 µM [activator, partial curve]"}
{"molecule": "O=C(N/N=C/c1cccnc1)c1ccc2c(c1)OCO2", "Potency": "inconclusive: 14.6 µM [activator, partial curve]"}
{"molecule": "NS(=O)(=O)c1ccc(NC(=S)Nc2cc(Cl)c(Cl)cc2Cl)cc1", "Potency": "inactive"}
{"molecule": "CC(C)=CC(=O)OCC(=O)Nc1ccc(SC(F)F)cc1", "Potency": "inactive"}
{"molecule": "CN(C(=O)COC(=O)/C=C/c1cccs1)C1CCCCC1", "Potency": "inconclusive: 20.6 µM [activator, single point]"}
{"molecule": "O=C(NCc1ccncc1)Nc1cccc(Cl)c1", "Potency": "inconclusive: 29.1 µM [activator, single point]"}
{"molecule": "COC(=O)c1cn(Cc2cc(OC)ccc2OC)cc(F)c1=O", "Potency": "inactive"}
{"molecule": "CCOC(=O)c1cc(-c2ccccc2)n(CCC(=O)N2CCN(c3ccc(OC)cc3)CC2)c1C", "Potency": "inconclusive: 18.4 µM [inhibitor, partial curve, poor fit]"}
{"molecule": "CCCCN1CCc2c1nc1ccc(Br)cc1c2N", "Potency": "inactive"}
{"molecule": "N#C/C(=C\\c1c(F)cccc1Cl)c1nn(-c2ccccc2)c(-n2cccc2)c1C#N", "Potency": "inconclusive: 20.6 µM [inhibitor, partial curve]"}
{"molecule": "O=C(Nc1ccc(F)cc1)N1CCCN(c2ccc(C(F)(F)F)cn2)CC1", "Potency": "inconclusive: 5.17 µM [inhibitor, full curve]"}
{"molecule": "Cc1ccccc1C(=O)Nc1ccc(Br)cn1", "Potency": "inconclusive: 1.84 µM [activator, full curve]"}
{"molecule": "COc1ccc(-c2cc(C(F)(F)F)n3nc(C(=O)NCc4ccco4)cc3n2)cc1OC", "Potency": "inconclusive: 25.9 µM [inhibitor, single point]"}
{"molecule": "CC1=CC(C)(C)N(C(=O)c2ccccc2)c2ccccc21", "Potency": "inactive"}
{"molecule": "COc1ccc(S(=O)(=O)N2CCCCCC2)cc1C(=O)Nc1cc(C)ccn1", "Potency": "inconclusive: 10.3 µM [inhibitor, partial curve, poor fit]"}
{"molecule": "O=C(NC1CCN(S(=O)(=O)c2ccccc2C(F)(F)F)CC1)c1ccco1", "Potency": "inconclusive: 0.58 µM [inhibitor, single point]"}
{"molecule": "COc1ccc(OC)c(NC(=O)C(=O)NCCC2=CCCCC2)c1", "Potency": "inactive"}
{"molecule": "COc1ccc(NC(=O)C2CCCN(c3ncccn3)C2)cc1", "note": "(stereo not given)", "Potency": "inconclusive: 20.6 µM [activator, partial curve]"}
{"molecule": "CC(C)=CC(=O)Nc1nc2ccc([N+](=O)[O-])cc2s1", "Potency": "inconclusive: 29.1 µM [activator, single point]"}
{"molecule": "Cc1cccc(NC(=O)COc2ccc3c(c2)CCC3)n1", "Potency": "inconclusive: 13 µM [activator, single point]"}
{"molecule": "CN(CCOc1ccc(Cl)cc1)C(=O)c1ccc(S(=O)(=O)N2CCOCC2)cc1", "Potency": "inconclusive: 23.1 µM [inhibitor, single point]"}
{"molecule": "CC(C)n1cnc2cc(NCc3ccco3)ccc21", "Potency": "inconclusive: 18.4 µM [activator, partial curve]"}
{"molecule": "COc1ccc(C(=O)N/N=C\\c2coc3ccccc3c2=O)cc1", "Potency": "inactive"}
{"molecule": "CS(=O)(=O)N(CC(=O)N1CCOCC1)c1cccc(F)c1", "Potency": "inactive"}
{"molecule": "CC1(C)CC(=O)C(N=Nc2c(Cl)cc(Cl)cc2Cl)=C(O)C1", "Potency": "inconclusive: 16.4 µM [activator, single point]"}
{"molecule": "Cc1occc1-c1nnc(SCC(=O)c2cc3ccccc3oc2=O)o1", "Potency": "inconclusive: 23.1 µM [activator, partial curve]"}
{"molecule": "COC(=O)c1c(N2C(=O)[C@H]3[C@@H](C2=O)[C@]2(C(=O)Nc4ccccc42)N2CCC[C@@H]32)sc(C)c1C", "Potency": "inconclusive: 29.1 µM [inhibitor, single point]"}
{"molecule": "COc1cccc(-c2nc3c(c(=O)[nH]c(=O)n3Cc3ccccc3)n2CCO)c1OC(F)F", "Potency": "inconclusive: 20.6 µM [inhibitor, single point]"}
{"molecule": "Cc1nnc(N/N=C/c2c(Cl)cccc2Cl)n1N", "Potency": "inactive"}
{"molecule": "CC(C)c1ccc(NC(=O)CCNS(=O)(=O)c2ccc3[nH]c(=O)oc3c2)cc1", "Potency": "inactive"}
{"molecule": "CSc1ccc(CNC(=O)CCn2ccc3cc(S(=O)(=O)N4CCCC4)ccc32)cc1", "Potency": "inconclusive: 29.1 µM [inhibitor, single point]"}
{"molecule": "Brc1cc2c(cc1COc1ccc(-c3nn[nH]n3)cc1)OCO2", "Potency": "inconclusive: 18.4 µM [activator, single point]"}
{"molecule": "Cc1[nH]c(-c2ccc(F)cc2)cc1C(=O)N1CCN(c2ccccc2)CC1", "Potency": "inconclusive: 29.1 µM [inhibitor, partial curve, poor fit]"}
